Measurements published in patent US20240408093A1, “HETEROBIFUNCTIONAL COMPOUNDS AND THEIR USE IN TREATING DISEASE” (HALDA THERAPEUTICS OPCO, INC., priority 2022, published 2024).
Read-outs that look alike come from different tables or passages of the source. The structures given here were assigned with low confidence; some may be wrong.

Chains of the proteins cited; added tags and fusions are not shown.
UniProt O75909, whole entry: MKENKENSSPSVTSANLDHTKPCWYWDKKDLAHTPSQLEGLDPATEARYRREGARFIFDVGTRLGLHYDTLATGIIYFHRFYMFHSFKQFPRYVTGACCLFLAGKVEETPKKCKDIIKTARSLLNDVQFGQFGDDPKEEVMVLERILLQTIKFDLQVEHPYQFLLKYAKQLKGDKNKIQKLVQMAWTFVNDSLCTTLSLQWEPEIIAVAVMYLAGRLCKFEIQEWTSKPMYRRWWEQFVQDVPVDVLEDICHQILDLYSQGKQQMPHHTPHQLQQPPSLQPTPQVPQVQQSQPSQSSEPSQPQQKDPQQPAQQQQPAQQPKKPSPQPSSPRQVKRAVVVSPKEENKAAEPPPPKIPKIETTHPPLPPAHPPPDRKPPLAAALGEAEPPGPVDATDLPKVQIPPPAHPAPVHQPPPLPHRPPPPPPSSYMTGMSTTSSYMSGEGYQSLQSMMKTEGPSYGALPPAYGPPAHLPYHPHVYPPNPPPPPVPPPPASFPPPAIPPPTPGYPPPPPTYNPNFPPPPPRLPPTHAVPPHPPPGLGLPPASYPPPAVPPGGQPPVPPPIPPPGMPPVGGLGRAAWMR
UniProt Q16531, whole entry: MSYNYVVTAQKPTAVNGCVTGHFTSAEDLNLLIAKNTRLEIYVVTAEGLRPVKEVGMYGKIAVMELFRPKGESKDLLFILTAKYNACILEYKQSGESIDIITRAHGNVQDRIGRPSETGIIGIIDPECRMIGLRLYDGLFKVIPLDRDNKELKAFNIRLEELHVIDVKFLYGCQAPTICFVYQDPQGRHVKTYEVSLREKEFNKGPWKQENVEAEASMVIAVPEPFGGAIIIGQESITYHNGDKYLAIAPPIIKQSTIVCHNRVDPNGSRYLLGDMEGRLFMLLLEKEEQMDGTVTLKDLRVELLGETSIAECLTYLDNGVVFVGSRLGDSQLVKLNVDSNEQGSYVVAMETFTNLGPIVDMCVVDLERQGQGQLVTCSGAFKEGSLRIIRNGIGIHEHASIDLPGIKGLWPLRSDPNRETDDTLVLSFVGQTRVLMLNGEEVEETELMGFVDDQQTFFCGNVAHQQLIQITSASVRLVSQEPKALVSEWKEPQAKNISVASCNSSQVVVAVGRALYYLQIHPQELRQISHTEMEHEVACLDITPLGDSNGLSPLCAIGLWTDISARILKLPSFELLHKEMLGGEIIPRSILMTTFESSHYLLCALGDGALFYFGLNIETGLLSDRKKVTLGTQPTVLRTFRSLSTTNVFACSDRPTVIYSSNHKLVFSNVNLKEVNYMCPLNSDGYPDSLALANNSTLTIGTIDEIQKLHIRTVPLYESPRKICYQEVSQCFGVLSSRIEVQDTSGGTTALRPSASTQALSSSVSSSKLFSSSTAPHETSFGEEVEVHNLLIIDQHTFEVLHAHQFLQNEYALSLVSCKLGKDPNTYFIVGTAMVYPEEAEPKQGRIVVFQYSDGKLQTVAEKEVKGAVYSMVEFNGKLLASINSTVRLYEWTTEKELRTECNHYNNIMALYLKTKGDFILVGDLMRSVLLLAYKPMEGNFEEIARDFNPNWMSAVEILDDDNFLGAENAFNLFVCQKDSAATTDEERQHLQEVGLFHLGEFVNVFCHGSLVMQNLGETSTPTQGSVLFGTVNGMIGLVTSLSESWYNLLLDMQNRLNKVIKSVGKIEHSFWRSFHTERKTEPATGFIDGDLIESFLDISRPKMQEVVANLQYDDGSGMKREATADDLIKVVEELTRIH
UniProt Q9NYV4, whole entry: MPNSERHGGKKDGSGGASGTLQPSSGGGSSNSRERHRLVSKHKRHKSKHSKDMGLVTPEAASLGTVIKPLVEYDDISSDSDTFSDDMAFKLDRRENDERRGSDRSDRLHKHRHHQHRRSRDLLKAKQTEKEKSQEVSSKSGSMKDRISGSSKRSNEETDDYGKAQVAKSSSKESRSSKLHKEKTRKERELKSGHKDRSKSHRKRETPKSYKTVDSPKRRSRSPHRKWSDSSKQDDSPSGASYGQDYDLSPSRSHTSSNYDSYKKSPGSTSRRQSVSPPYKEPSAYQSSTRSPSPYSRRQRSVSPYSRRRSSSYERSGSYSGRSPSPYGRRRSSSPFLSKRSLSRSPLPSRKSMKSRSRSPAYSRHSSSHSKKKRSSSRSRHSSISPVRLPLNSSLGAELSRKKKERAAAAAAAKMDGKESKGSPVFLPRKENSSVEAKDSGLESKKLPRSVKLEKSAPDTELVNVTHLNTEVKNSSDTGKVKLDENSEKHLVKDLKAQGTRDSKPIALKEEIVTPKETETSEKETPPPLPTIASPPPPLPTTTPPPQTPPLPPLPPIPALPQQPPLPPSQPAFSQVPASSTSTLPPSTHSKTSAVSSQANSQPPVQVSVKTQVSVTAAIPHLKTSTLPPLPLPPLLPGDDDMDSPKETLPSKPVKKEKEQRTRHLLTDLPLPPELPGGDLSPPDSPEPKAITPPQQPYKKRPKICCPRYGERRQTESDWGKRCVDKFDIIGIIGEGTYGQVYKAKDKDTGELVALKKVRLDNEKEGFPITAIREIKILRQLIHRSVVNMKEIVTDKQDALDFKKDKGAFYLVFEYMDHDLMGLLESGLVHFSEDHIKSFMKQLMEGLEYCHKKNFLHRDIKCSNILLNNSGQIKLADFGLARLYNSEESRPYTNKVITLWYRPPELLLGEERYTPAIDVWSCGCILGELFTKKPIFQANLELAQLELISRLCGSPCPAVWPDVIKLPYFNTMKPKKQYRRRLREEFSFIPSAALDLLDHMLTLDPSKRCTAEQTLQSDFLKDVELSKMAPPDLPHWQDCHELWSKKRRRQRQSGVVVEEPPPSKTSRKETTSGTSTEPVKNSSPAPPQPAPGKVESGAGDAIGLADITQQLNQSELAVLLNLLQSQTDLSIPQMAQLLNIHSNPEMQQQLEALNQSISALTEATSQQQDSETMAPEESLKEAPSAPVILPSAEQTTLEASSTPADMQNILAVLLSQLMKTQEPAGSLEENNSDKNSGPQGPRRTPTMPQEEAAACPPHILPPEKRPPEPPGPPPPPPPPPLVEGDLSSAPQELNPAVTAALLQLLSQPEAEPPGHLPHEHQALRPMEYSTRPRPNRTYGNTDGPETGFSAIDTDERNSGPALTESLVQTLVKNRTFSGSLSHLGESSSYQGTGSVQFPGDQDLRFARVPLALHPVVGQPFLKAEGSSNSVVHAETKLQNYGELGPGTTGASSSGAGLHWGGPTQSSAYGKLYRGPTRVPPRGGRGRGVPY
UniProt P15170, whole entry: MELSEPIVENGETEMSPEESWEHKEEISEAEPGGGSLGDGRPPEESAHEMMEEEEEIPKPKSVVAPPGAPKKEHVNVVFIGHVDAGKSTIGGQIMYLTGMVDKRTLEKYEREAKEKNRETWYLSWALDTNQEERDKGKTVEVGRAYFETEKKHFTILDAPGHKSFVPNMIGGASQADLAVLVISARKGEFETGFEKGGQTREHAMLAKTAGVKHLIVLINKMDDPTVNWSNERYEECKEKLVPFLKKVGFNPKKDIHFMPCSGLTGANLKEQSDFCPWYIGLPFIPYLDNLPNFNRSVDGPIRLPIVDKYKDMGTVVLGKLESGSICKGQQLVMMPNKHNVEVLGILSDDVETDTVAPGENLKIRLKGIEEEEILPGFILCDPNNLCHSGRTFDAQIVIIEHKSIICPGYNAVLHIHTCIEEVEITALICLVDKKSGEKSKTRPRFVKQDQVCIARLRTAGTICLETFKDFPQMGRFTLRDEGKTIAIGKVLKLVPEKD
UniProt Q96SW2, whole entry: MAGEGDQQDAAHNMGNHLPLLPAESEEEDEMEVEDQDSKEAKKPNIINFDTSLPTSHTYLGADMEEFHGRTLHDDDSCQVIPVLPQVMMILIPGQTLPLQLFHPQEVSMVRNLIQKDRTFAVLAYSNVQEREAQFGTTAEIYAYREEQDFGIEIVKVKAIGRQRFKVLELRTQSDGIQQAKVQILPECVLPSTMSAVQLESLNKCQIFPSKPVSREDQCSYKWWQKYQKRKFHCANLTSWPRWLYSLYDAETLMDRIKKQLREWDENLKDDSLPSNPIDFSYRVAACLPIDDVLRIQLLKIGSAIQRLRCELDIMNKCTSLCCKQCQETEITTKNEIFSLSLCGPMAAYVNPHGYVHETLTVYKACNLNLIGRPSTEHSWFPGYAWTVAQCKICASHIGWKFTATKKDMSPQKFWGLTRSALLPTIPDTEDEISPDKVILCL

Legend:
CCNK [1] = assay: Payload release assay (DC50 readout), CCNK degradation in the presence of recombinant target protein; settings: II-series compounds (CCNK readout inferred)
Method: (§1) Exemplary compounds were tested for ability to cause degradation of CCNK or GSPT1 in the presence of recombinant target protein.
(§2) HEK293 LgBiT/GSPT1 HiBiT CRISPR Knock-in cells (Promega) were cultured in DMEM (Gibco 11995), supplemented with 10% Heat-inactivated FBS (Gibco A38400-01) and 1% Penicillin/Streptomycin (Gibco 15140-122) and 200 Vg/ml Hygromycin B (Gibco 10-687-010) at 37° C. with 5% CO2 in a humidified tissue culture incubator. HEK293 LgBiT/CCNK HiBiT cells (in-house, described above) were cultured in DMEM (Gibco 11995), supplemented with 10% Heat-inactivated FBS (Gibco A38400-01) and 1% Penicillin/Streptomycin (Gibco 15140-122) 200 Vg/ml Hygromycin B (Gibco 10-687-010), and 1 Vg/ml Puromycin Dihydrochloride (Thermo A1113803) at 37° C. with 5% CO2 in a humidified tissue culture incubator. Cells were seeded (1000 cells/well for HEK293 LgBiT/GSPT1 HiBiT cells or 3000 cells/well for HEK293 LgBiT/CCNK HiBiT cells) 384-well, tissue culture-treated white plates (Perkin Elmer 6007680) in 10 μL media lacking selection for 18-24 hours. Plates were spun at 300 g for 30 seconds and stored in the incubator overnight. […] After 6 hours the plate was read on Envision MultiMode Plate Reader 2105 (Perkin Elmer) to measure luminescence signal. […]

CCNK [2] = molecular target: CCNK (Homo sapiens, UniProt O75909+Q16531+Q9NYV4); assay: CCNK HiBiT degradation assay; settings: HEK293 LgBiT/CCNK HiBiT cells, 6 hours
Method: HEK293 LgBiT cells (Promega) were cultured in DMEM (Gibco 11995), supplemented with 10% Heat-inactivated FBS (Gibco A38400-01) and 1% Penicillin/Streptomycin (Gibco 15140-122) and 200 μg/ml Hygromycin B (Gibco 10-687-010) at 37° C. with 5% CO2 in a humidified tissue culture incubator. Cells were made stable for CCNK fused to a C-terminal HiBiT peptide by lentiviral transduction, followed by selection with 1 μg/ml Puromycin Dihydrochloride (Thermo A1113803). HEK293 LgBiT/CCNK HiBiT cells were seeded at 3000 cells/well in 384-well, tissue culture-treated white plates (Perkin Elmer 6007680) in 25 μL media lacking selection for 18-24 hours. Plates were spun at 300 g for 30 seconds and stored in the incubator overnight. After 24 hours, compounds were titrated in DMSO and added to media supplemented with Endurazine Substrate (Promega N2570). A 25 ul aliquot of 2× compound/endurazine in media were then added to the 384-well microplate with seeded cells. (Endurazine was used at a final concentration of 0.5×). The plate was spun at 300 g for 30 seconds and stored in the incubator. After 6 hours the plate was read on Envision MultiMode Plate Reader 2105 (Perkin Elmer) to measure luminescence signal. Data were plotted in Prism (Graphpad) and the concentration of compound at which 50% CCNK degradation occurs (DC50) was calculated.

GSPT1 [3] = assay: Payload release assay (DC50 readout), GSPT1 degradation in the presence of recombinant target protein; settings: I-series compounds (GSPT1 readout inferred)
Method: as §1, §2

GSPT1 [4] = molecular target: GSPT1 (Homo sapiens, UniProt P15170+Q96SW2); assay: GSPT1 HiBiT degradation assay; settings: HEK293 LgBiT GSPT1 HiBiT cells, 6 hours
Description: Promega developed a HEK293 cell line that constitutively expresses LgBiT protein and GSPT1_HiBiT fusion protein. When both proteins are present, the HiBiT portion of the fusion protein combines with LgBiT protein to form a functional luciferase enzyme. Endurazine, a cell permeable small molecule, is converted by cellular esterases into furimazine, which the luciferase enzyme uses as a substrate to generate luminescence. When GSPT1 is degraded, the HiBit is also degraded. This prevents formation of fully functional luciferase, leading to a loss in luminescence. GSPT1 degradation therefore correlates with a decrease in luminescence and can be measured continuously over time. The concentration of compound at which 50% GSPT1 degradation occurs (DC50) may be calculated using this system.
HEK293 LgBiTGSPT1 HiBiT CRISPR Knock-in cells were cultured in DMEM Media supplemented with 10% Heat-inactivated FBS, 1% Penicillin/Streptomycin, 200 μg/mL hygromycin and stored in a humidified incubator set at 37° C. and 5% CO2. […] After 6 hours, the plate was read on a Perkin Elmer MultiMode Plate Reader Envision 2105 to measure luminescence signal. Data were plotted in Prism (Graphpad) and the concentration of compound at which 50% GSPT1 degradation occurs (DC50) was calculated.

[5] = read-out: DC50 at 0 μM KRAS G12C, 0 μM recombinant KRAS G12C
[6] = read-out: DC50 at 5 μM KRAS G12C, 5 μM recombinant KRAS G12C

| SMILES | DC50 (CCNK [1]; [5]) | DC50 (CCNK [1]; [6]) | DC50 (CCNK [2]) | DC50 (GSPT1 [3]; [5]) | DC50 (GSPT1 [3]; [6]) | DC50 (GSPT1 [4]) |
| --- | --- | --- | --- | --- | --- | --- |
| C=C(COC(=O)N1CCN(c2nc(NCc3nc4cc(C)ccc4[nH]3)n3ncc(Br)c3n2)CC1)C(=O)N1CCN(c2nc(OC[C@@H]3CCCN3C)nc3c2CCN(c2cccc4cccc(Cl)c24)C3)C[C@@H]1CC#N | < 0.25 µM | < 0.25 µM | < 0.25 µM | – | – | – |
| C=C(COC(=O)NCCc1cc(Cl)cc(NC(=O)NCc2ccc3c(c2)CN(C2CCC(=O)NC2=O)C3=O)c1)C(=O)N1CCN(c2nc(OC[C@@H]3CCCN3C)nc3c2CCN(c2cccc4cccc(Cl)c24)C3)C[C@@H]1CC#N (stereo partly drawn) | – | – | – | > 10 µM | < 0.25 µM | > 2.5 µM |
